The record followed here is paper PMC6970084.

Amino acid sequences for entries named in this document (tags omitted).
UniProt P78362: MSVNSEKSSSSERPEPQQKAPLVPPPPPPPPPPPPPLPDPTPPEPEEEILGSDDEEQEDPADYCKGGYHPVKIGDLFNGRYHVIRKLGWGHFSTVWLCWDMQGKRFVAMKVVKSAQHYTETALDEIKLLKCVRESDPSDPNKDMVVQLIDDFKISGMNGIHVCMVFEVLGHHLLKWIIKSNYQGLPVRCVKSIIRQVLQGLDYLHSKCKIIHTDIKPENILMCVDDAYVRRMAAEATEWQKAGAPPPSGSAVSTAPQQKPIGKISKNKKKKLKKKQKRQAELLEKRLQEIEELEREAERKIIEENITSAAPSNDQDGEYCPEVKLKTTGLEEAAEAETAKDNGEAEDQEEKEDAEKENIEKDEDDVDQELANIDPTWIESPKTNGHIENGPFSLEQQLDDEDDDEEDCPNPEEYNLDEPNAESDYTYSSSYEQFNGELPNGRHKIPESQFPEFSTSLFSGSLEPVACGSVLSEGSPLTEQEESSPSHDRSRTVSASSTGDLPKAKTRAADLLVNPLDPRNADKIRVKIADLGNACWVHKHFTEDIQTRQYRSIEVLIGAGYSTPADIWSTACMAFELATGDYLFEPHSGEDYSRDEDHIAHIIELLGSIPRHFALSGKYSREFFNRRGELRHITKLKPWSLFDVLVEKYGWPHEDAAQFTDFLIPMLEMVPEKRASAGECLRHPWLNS

These are yes or no findings as the source states them, for the method shown. Binding seen in cells or lysates may run through a third protein. Some binding calls cover weakened binding; strength is not graded here.

Experiment in all cases: co-IP; endogenous proteins of HCT116 cells, without or with 5-fluorouracil at its IC50; precipitated with SRPK2, Numb or p53 antibody, control IgG as negative control; blotted; procedure as in ref. 15
The target of assay [1] is T1, Numb (human (endogenous in HCT116)) (UniProt P49757).
T1 sequence: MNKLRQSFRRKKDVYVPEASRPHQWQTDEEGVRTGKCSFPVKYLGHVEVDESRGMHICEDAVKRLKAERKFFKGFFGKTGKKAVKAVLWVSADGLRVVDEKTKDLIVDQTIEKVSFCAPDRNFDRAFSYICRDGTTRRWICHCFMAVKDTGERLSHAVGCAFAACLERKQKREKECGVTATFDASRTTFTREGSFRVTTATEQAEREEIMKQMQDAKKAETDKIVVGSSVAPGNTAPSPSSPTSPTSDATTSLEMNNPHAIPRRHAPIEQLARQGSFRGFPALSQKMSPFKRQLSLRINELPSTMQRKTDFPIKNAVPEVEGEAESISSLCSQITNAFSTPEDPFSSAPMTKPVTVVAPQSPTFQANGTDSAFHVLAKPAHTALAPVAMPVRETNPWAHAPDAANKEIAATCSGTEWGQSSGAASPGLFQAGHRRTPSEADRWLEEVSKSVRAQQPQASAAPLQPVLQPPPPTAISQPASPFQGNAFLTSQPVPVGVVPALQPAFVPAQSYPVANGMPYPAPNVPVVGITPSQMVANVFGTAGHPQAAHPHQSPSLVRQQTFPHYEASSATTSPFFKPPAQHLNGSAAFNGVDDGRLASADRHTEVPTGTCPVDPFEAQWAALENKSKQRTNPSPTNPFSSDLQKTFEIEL

In assay [2] the target is wild-type p53 (human (endogenous in HCT116)) (UniProt P04637).
The target of assay [3] is Serine-arginine protein kinase 2 (human (endogenous in HCT116)) (UniProt P78362).

In the case of “Serine-arginine protein kinase 2 (from UniProt P78362 1-688) (enzyme)”, the binding entry in assay [1] and in assay [2] was “binds” each time. Consider “wild-type p53 (from UniProt P04637 1-393)”, for which the binding entry in assay [3] is on record as “binds”.
